From patent US12599570B2, “Biodegradable extended release microsphere-hydrogel ocular drug delivery system and method” (priority 2015, dated 2026)
For at least one compound, name, drawing or mass did not settle the structure.

System: CNV lesions
Assay: Preliminary study of extended release of dexamethasone from nanosphere DDS on CNV lesions
Format: in vivo
Details: extended release from DDS with nanospheres

## C[C@@H]1C[C@H]2[C@@H]3CCC4=CC(=O)C=C[C@]4(C)[C@@]3(F)[C@@H](O)C[C@]2(C)[C@@]1(O)C(=O)CO [dexamethasone]
  CNV lesion areas compared to bolus administration: greatly reduced CNV lesions areas compared to bolus administration
